Laboratory results from patent US9511064B2, “Combination therapy for the treatment of cancer and immunosuppression” (Basilea Pharmaceutica AG, priority 2012, dated 2016).
Some entries share one result that the patent states for a list of compounds.

System: HL60 tumor cells and the mouse mast cell line 6.5
Experiment: AlamarBlue conversion cell proliferation assay, general statements without cell line
Format: cell-based

In the case of `COC(=O)[C@H]1[C@H]2C[C@@H]3c4[nH]c5cc(OC)ccc5c4CCN3C[C@H]2C[C@@H](OC(=O)c2cc(OC)c(OC(=O)OCc3ccncc3)c(OC)c2)[C@@H]1OC` [Example 6, methyl (1R,15S,17R,18R,19S,20S)-17-[(3,5-dimethoxy-4-{[(pyridin-4-ylmethoxy)carbonyl]oxy}phenyl)carbonyloxy]-6,18-dimethoxy-3,13-diazapentacyclo[11.8.0.0^2,10.0^4,9.0^15,20]henicosa-2(10),4,6,8-tetraene-19-carboxylate], the “concentration exhibiting anti-proliferative activity in combination with 4 mM metformin” value is reported as at most 5 µM.

With `CCOC(=O)Oc1c(OC)cc(C(=O)O[C@@H]2C[C@@H]3CN4CCc5c([nH]c6cc(OC(=O)OC(C)(C)C)ccc56)[C@H]4C[C@@H]3[C@H](C(=O)OC)[C@H]2OC)cc1OC` [Example 12, methyl (1R,15S,17R,18R,19S,20S)-6-{[(tert-butoxy)carbonyl]oxy}-17-({4-[(ethoxycarbonyl)oxy]-3,5-dimethoxyphenyl}carbonyloxy)-18-methoxy-3,13-diazapentacyclo[11.8.0.0^2,10.0^4,9.0^15,20]henicosa-2(10),4,6,8-tetraene-19-carboxylate] the “concentration exhibiting anti-proliferative activity in combination with 4 mM metformin” value was at most 5 µM.

For `CCOC(=O)Oc1c(OC)cc(C(=O)O[C@@H]2C[C@@H]3CN4CCc5c([nH]c6cc(OC(=O)CN)ccc56)[C@H]4C[C@@H]3[C@H](C(=O)OC)[C@H]2OC)cc1OC` [Example 16, methyl (1R,15S,17R,18R,19S,20S)-6-[(2-aminoacetyl)oxy]-17-({4-[(ethoxycarbonyl)oxy]-3,5-dimethoxyphenyl}carbonyloxy)-18-methoxy-3,13-diazapentacyclo[11.8.0.0^2,10.0^4,9.0^15,20]henicosa-2(10),4,6,8-tetraene-19-carboxylate], the “concentration exhibiting anti-proliferative activity in combination with 4 mM metformin” value was at most 5 µM.

`COC(=O)[C@H]1[C@H]2C[C@@H]3c4[nH]c5cc(OC)ccc5c4CCN3C[C@H]2C[C@@H](OC(=O)c2cc(OC)c(OC(=O)Cc3ccccc3)c(OC)c2)[C@@H]1OC` [Example 20, methyl (1R,15S,17R,18R,19S,20S)-17-({3,5-dimethoxy-4-[(2-phenylacetyl)oxy]phenyl}carbonyloxy)-6,18-dimethoxy-3,13-diazapentacyclo[11.8.0.0^2,10.0^4,9.0^15,20]henicosa-2(10),4,6,8-tetraene-19-carboxylate] was tested, and the “concentration exhibiting anti-proliferative activity in combination with 4 mM metformin” value was at most 5 µM.

For `COC(=O)[C@H]1[C@H]2C[C@@H]3c4[nH]c5cc(OC)ccc5c4CCN3C[C@H]2C[C@@H](OC(=O)c2cc(OC)c(OC(=O)OCc3ccccc3)c(OC)c2)[C@@H]1OC` [Example 21, methyl (1R,15S,17R,18R,19S,20S)-17-[(4-{[(benzyloxy)carbonyl]oxy}-3,5-dimethoxyphenyl)carbonyloxy]-6,18-dimethoxy-3,13-diazapentacyclo[11.8.0.0^2,10.0^4,9.0^15,20]henicosa-2(10),4,6,8-tetraene-19-carboxylate], the “concentration exhibiting anti-proliferative activity in combination with 4 mM metformin” value was at most 5 µM.
